Test results: paper PMC9505425, “Targeting of the Mitochondrial TET1 Protein by Pyrrolo[3,2-b]pyrrole Chelators” (International Journal of Molecular Sciences, 2022)

Columns and labels:
[1] = Complexation with Fe(II) ions by UV–VIS titration (conditional binding constants); assay type: physicochemical; details: for interaction with Fe(II) ions: absorption spectroscopy; for Log(K): water/DMSO 99:1
Description: The interaction of prepared compounds 1–6 with Fe(II) ions was determined by absorption spectroscopy, and the highest affinity (represented by the binding constant, Table 1) was obtained for compound 1 (Figure 3 and Table 1). […] On the contrary, we expected that an incorporation of another iron-binding group (i.e., hydroxyphenyl) into the structural motif of compound 1 would support its chelation ability. Loss of chelation ability could be explained by the protonation of the iron-binding group. […] On the contrary, they can display a negative charge in the basic pH.
The complexation of compounds 1–6 with Fe(II) ions was studied by UV–VIS spectroscopy in aqueous medium (water/DMSO, 99:1, v/v). Compounds 1–6 were dissolved in DMSO (Penta, Katovice, Czech Republic) that, prior to the experiment, had been diluted with water to a concentration of 10 μM. The concentrations of Fe(II) ions varied from 0 to 0.5 mM. All titrations were performed in the same environment, and the ratio of DMSO to water was held constant. All absorption spectra of the chelators were recorded by a Cintra 404 GBC spectrometer. Conditional constants (Ks) were calculated from the absorbance changes, ΔA, of compounds 1–6 at the spectral maxima of their complexes with Fe(II), using nonlinear regression analysis with the Letagrop Spefo 2.0 (Vanura, Prague, Czech Republic) software. The computational model for conditional constants (Ka) is described and discussed in detail elsewhere, with the same method used to study the interactions of the organic hosts with metal ions in aqueous medium. Solutions were mixed in the cuvette during the whole titration and after every Fe(II) chelate addition.

[2] = tested on: HF-P4 cells; assay: Intracellular localization by live-cell fluorescence microscopy; assay type: cell-based, human; details: HF-P4, 1 μM; for intracellular localization: 15 min
Description: Using real-time live-cell fluorescence microscopy on the model HF-P4 cell line, we investigated the intracellular localization of tested compounds at a concentration of 1 μM.
The intracellular localization of tested compounds 1–6 was investigated by fluorescence real-time live-cell microscopy using a Leica TCS SP8 WLL SMD-FLIM microscope at 37 °C and a 5% CO2 atmosphere. The model cell line, HF-P4 cells, was seeded at a density of 4.0 × 10^4 per well on 22 × 22 mm glasses (VWR, Stříbrná Skalice, Czech Republic) in Petri dishes for live-cell imaging in a complete cell culture medium (DMEM with 1% streptomycin and 10% FBS), and cells were maintained overnight (24 h) for adhesion. After 24 h, the cells were incubated for 15 min (37 °C, 5% CO2) in a complete culture medium containing compounds 1–6 at 1 μM concentrations, together with 50 nM of MitoTracker® Red FM (MTR; Thermo Fisher, Prague, Czech Republic) and 300 nM of LysoTracker® Green FM (LTG; Thermo Fisher, Prague, Czech Republic). […] Cells were then rinsed with PBS twice and left in a fresh medium without phenol red. We used a water objective, HC PL APO CS2 63× (NA 1.2), and laser with an excitation wavelength of 405 nm (10% power) with a fluorescence emission range 415–480 nm for visualization of cells. For MTR, we used a laser with an excitation wavelength of 579 nm (power 8%), and for LTG, we used a laser with an excitation wavelength of 504 nm (power 10%). Colocalization of the tested hydrazone derivates with mitochondria or lysosomes was assessed by correlation statistical analysis of the intensity values of red (MTR) or green (LTG) and blue (hydrazone derivate) pixels in dual-channel images. Pearson’s correlation coefficient was calculated using the ImageJ software.

| SMILES | interaction with Fe(II) ions [1] | intracellular localization [2] | Log(K) ([1]; Fe(II) ions:compound 1:1) | Log(K) ([1]; Fe(II) ions:compound 1:2) | Log(K) ([1]; Fe(II) ions:compound 2:1) | Pearson’s correlation coefficient (mitochondrial colocalization) ([2]; MitoTracker Red) |
| --- | --- | --- | --- | --- | --- | --- |
| Cc1ccc(-n2c(-c3ccc(C(=O)N/N=C/c4ccccc4O)cc3)cc3c2cc(-c2ccc(C(=O)N/N=C/c4ccccc4O)cc2)n3-c2ccc(C)cc2)cc1 [Compound 6] | no significant interaction | lysosomes |  |  |  |  |
| CCN(CC)c1ccc(/C=N/NC(=O)c2ccc(-c3cc4c(cc(-c5ccc(C(=O)N/N=C/c6ccc(N(CC)CC)cc6O)cc5)n4-c4ccc(C)cc4)n3-c3ccc(C)cc3)cc2)c(O)c1 [Compound 2] |  | both mitochondria and lysosomes | 7.2/M | 17.2/M^2 |  |  |
| Cc1ccc(-n2c(-c3ccc(C(=O)N/N=C/c4cc(F)ccc4O)cc3)cc3c2cc(-c2ccc(C(=O)N/N=C/c4cc(F)ccc4O)cc2)n3-c2ccc(C)cc2)cc1 [Compound 3] | no significant interaction | lysosomes |  |  |  |  |
| COc1cccc(/C=N/NC(=O)c2ccc(-c3cc4c(cc(-c5ccc(C(=O)N/N=C/c6cccc(OC)c6O)cc5)n4-c4ccc(C)cc4)n3-c3ccc(C)cc3)cc2)c1O [Compound 5] | no significant interaction | both mitochondria and lysosomes |  |  |  |  |
| Cc1ccc(-n2c(-c3ccc(C(=O)N/N=C/c4ccc(O)cc4O)cc3)cc3c2cc(-c2ccc(C(=O)N/N=C/c4ccc(O)cc4O)cc2)n3-c2ccc(C)cc2)cc1 [Compound 4] |  | lysosomes | 6.9/M | 17.4/M^2 | 10.9/M^2 |  |
| Cc1ccc(-n2c(-c3ccc(C(=O)NN)cc3)cc3c2cc(-c2ccc(C(=O)NN)cc2)n3-c2ccc(C)cc2)cc1 [Compound 1] |  | exclusive mitochondrial localization; also recorded: selectivity for mitochondria | 8.4/M | 17.2/M^2 |  | 0.92 |

“Also recorded” adds a separate entry of the source. Some compounds share one wording; it may come from a single statement.
